Measurements from article PMC2949602, “Genome-wide search identifies Ccnd2 as a direct transcriptional target of Elf5 in mouse mammary gland”.
Numbering of substitutions follows the chain as printed. For some assays here: A weaker result is weaker than the reference pair of the same experiment. Tags and fusion partners may be left off the protein sequences shown. The exact form of at least one protein or probe is not confirmed. For some assays here: Negatives hold for the conditions tested.

Key:
Test in all cases: EMSA
GST-Elf5 WT (mouse) = biological target: T1, GST-Elf5 WT (mouse) (UniProt Q8VDK3); conditions: 20 mM HEPES pH 7.9, 75 mM KCl, 2.5 mM MgCl2, 1 mM EDTA, 0.5 mM DTT, 10% glycerol, 1 ug poly(dA-dT), room temperature, 5% nondenaturing PAGE, residues 1-253, label: 32P (Klenow fill-in with dCTP)
T1 sequence (looked up): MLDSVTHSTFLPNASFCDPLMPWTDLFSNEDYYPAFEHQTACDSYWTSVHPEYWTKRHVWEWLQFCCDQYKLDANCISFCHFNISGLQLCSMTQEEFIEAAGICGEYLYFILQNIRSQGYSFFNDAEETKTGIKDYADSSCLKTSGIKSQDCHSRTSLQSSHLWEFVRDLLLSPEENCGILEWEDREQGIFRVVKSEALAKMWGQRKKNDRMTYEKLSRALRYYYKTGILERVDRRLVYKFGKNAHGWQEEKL

[1] = biological target: T2, GST-Elf5 MT1 (K216A) (mouse) (UniProt Q8VDK3); conditions: 20 mM HEPES pH 7.9, 75 mM KCl, 2.5 mM MgCl2, 1 mM EDTA, 0.5 mM DTT, 10% glycerol, 1 ug poly(dA-dT), room temperature; 5% nondenaturing PAGE; recombinant …; residues 1-253; label: 32P (Klenow fill-in with dCTP)
T2 sequence (looked up): T1 sequence (looked up) with K216A

[2] = biological target: T3, GST-Elf5 MT2 (R219A) (mouse) (UniProt Q8VDK3); conditions: 20 mM HEPES pH 7.9, 75 mM KCl, 2.5 mM MgCl2, 1 mM EDTA, 0.5 mM DTT, 10% glycerol, 1 ug poly(dA-dT), room temperature; 5% nondenaturing PAGE; recombinant …; residues 1-253; label: 32P (Klenow fill-in with dCTP)
T3 sequence (looked up): T1 sequence (looked up) with R219A

Sequence | binding result (GST-Elf5 WT (mouse); recombinant …) | binding result [1] | binding result (GST-Elf5 WT (mouse); complex supershifted by two anti-Elf5 antibodies, recombinant protein) | binding result [2]
CAGATTAGAAAGGAAAAGGATTACAGTAGT / GTGACTACTGTAATCCTTTTCCTTTCTAAT [Cyclin D2 upstream region 1 oligo] | binds more weakly |  |  | 
GAGCCAGCAGGATGCTTGACATTCCAGCTGCTGG / AGGCCAGCAGCTGGAATGTCAAGCATCCTGCTGG [Cyclin D2 upstream region 2 oligo] | binds more weakly |  |  | 
ACGCTAGAGGAGGGGAGGAAAGGGGAGGAGGAA / AGGTTCCTCCTCCCCCTTTCCTCCCCTCCTCTAG [Cyclin D2 promoter oligo] |  | no binding | binds | no binding
